Measurements published in PubChem BioAssay AID206 (DTP/NCI, 2004).
The list does not hold the whole screen: it gathers tests that were run many times, whatever their T/C, doses with no T/C, and many T/C values between a quarter and a half above the control. Other doses and runs of a compound stand elsewhere. T/C is the treated group as % of the vehicle group. Schedule codes are those of the source, read here as Q, the interval in days (D) or hours (H), X, the number of doses. Some entries give survivors of the animals treated and no T/C: the source files T/C as zero there, which appears to mark a toxic dose or a test without result, not a measured value. Counts of survivors are from the toxicity check (mostly the fifth day) where no day follows; animals may have died later. Positions of bridges follow the written chain, without caps; N, C: chain ends. Non-standard residues stand in square brackets, D forms with d. Residues, ends and D or L forms follow the SMILES beside them. Chains are numbered I, II in the order given. *: point of attachment. Quinoxaline2carbonyl = O=C(c1cnc2ccccc2n1)*; NMeV = CN[CH](C(=O)O)C(C)C; NMeC = CN[CH](CS)C(=O)O

System: nude mice, HT29 intrarenal xenograft, tumor weight T/C
Assay: NCI In Vivo Anticancer Drug Screen. Data for tumor model HT29;CX-1 Human Adenocarcinoma (MER+) (intrarenal inoculation) in NU/NU Swiss (nude) mice
Settings: T/C endpoint: mean tumor weight change, higher T/C = larger tumour
Outline: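 Readout: treated/vehicle-control ratio of the measured endpoint (tumor size or survival) in transplanted-tumor mice.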

[1] = dose: 800.0 mg/kg/injection, schedule: Q04DX004 (sc), vehicle: Klucel (hydroxypropylcellulose) (HPC)
[2] = dose: 800.0 mg/kg/injection, schedule: Q01DX010 (sc), vehicle: saline

C/C(=C\c1ccccc1)[N+](=O)[O-]
T/C (dose: 25.0 mg/kg/injection, schedule: Q01DX010 (sc), vehicle: Klucel (hydroxypropylcellulose) (HPC), evaluated on day 11): 132 % of control | survivor count (dose: 200.0 mg/kg/injection, schedule: Q01DX010 (sc), vehicle: Klucel (hydroxypropylcellulose) (HPC)): 1 of 3 on day 11

CN(C(=S)S(=O)(=O)C12CC3CC(CC(C3)C1)C2)c1ccccc1
T/C (dose: 200.0 mg/kg/injection, schedule: Q04DX004 (sc), vehicle: Klucel (hydroxypropylcellulose) (HPC), evaluated on day 15): 134 % of control | survivor count (dose: 1600.0 mg/kg/injection, schedule: Q04DX004 (sc), vehicle: Klucel (hydroxypropylcellulose) (HPC)): 3 of 6 on day 15

COc1cc2c(cc1O)N=C[C@@H]1CCC(O)N1C2=O (mixture of isomers)
survivor count (dose: 20.0 mg/kg/injection, schedule: Q04DX004 (sc), vehicle: suspension in saline): 1 of 6 on day 15 | survivor count (dose: 40.0 mg/kg/injection, schedule: Q04DX004 (sc), vehicle: suspension in saline): 0 of 6 on day 15 | survivor count (dose: 80.0 mg/kg/injection, schedule: Q04DX004 (sc), vehicle: suspension in saline): 0 of 6 on day 15

CCOC(=O)Nc1cc2c(c(N)n1)N=C(c1ccccc1)CN2
survivor count (dose: 50.0 mg/kg/injection, schedule: Q04DX004 (sc), vehicle: saline with Tween-80): 2 of 6 on day 15 | survivor count (dose: 100.0 mg/kg/injection, schedule: Q04DX004 (sc), vehicle: saline with Tween-80): 2 of 6 on day 15

ClCCCCCCCCCCc1ccccc1
survivor count (dose: 800.0 mg/kg/injection, schedule: Q01DX010 (sc), vehicle: Klucel (hydroxypropylcellulose) (HPC)): 1 of 3 on day 11

N=C(N)CCCCCCCCC(=N)N
survivor count (dose: 37.5 mg/kg/injection, schedule: Q04DX004 (sc), vehicle: saline): 1 of 6 on day 15 | survivor count (dose: 75.0 mg/kg/injection, schedule: Q04DX004 (sc), vehicle: saline): 0 of 6 on day 15 | survivor count (dose: 150.0 mg/kg/injection, schedule: Q04DX004 (sc), vehicle: saline): 0 of 6 on day 15

CC1NC(=O)C(NC(=O)c2cnc3ccccc3n2)COC(=O)C(C(C)C)N(C)C(=O)C2CSSCC(C(=O)N(C)C(C(C)C)C(=O)OCC(NC(=O)c3cnc4ccccc4n3)C(=O)NC(C)C(=O)N2C)N(C)C1=O (stereo not given) (I: Quinoxaline2carbonyl-SA[NMeC][NMeV] / II: Quinoxaline2carbonyl-SA[NMeC][NMeV]; ester I:1-II:C, I:C-II:1; disulfide I:3-II:3; configuration not given here)
survivor count [1]: 1 of 6 on day 15

N/C=N/O
T/C (dose: 200.0 mg/kg/injection, schedule: Q01DX010 (sc), vehicle: saline, evaluated on day 20): 138 % of control | survivor count [2]: 0 of 3 on day 20

OCCCN1CCCCC1CO (stereo not given)
survivor count (dose: 1800.0 mg/kg/injection, schedule: Q04DX004 (sc), vehicle: saline): 2 of 6 on day 15

O=S(=O)(SC(S(=O)(=O)c1ccccc1)S(=O)(=O)c1ccccc1)c1ccccc1
survivor count [1]: 1 of 6 on day 15

Cc1ccc(S(=O)(=O)NC(=O)OC23COCN2COC3)cc1
T/C (dose: 400.0 mg/kg/injection, schedule: Q04DX004 (sc), vehicle: saline with Tween-80, evaluated on day 15): 128 % of control

COC1CC(CC2CCC(C)C(C(C)C(=O)O)O2)OC2(OC(C)(C3CCC(C)(C4OC(C5OC(O)(CO)C(C)CC5C)CC4C)O3)CC2C)C1C (stereo not given)
survivor count (dose: 15.0 mg/kg/injection, schedule: Q04DX004 (sc), vehicle: Klucel (hydroxypropylcellulose) (HPC)): 3 of 6 on day 15 | survivor count (dose: 30.0 mg/kg/injection, schedule: Q04DX004 (sc), vehicle: Klucel (hydroxypropylcellulose) (HPC)): 1 of 6 on day 15

C1CC[N-]CC1.C1CC[N-]CC1.C1CC[N-]CC1.[Cl][Rh]([Cl])[Cl]
survivor count (dose: 600.0 mg/kg/injection, schedule: Q04DX004 (sc), vehicle: saline): 0 of 6 on day 15 | survivor count (dose: 1200.0 mg/kg/injection, schedule: Q04DX004 (sc), vehicle: saline): 0 of 6 on day 15

Nc1n[n+](-c2ccccc2)no1
T/C (dose: 18.75 mg/kg/injection, schedule: Q04DX004 (sc), vehicle: water, evaluated on day 15): 136 % of control | survivor count (dose: 37.5 mg/kg/injection, schedule: Q04DX004 (sc), vehicle: water): 2 of 5 on day 15 | survivor count (dose: 75.0 mg/kg/injection, schedule: Q04DX004 (sc), vehicle: water): 2 of 6 on day 15 | survivor count (dose: 150.0 mg/kg/injection, schedule: Q04DX004 (sc), vehicle: water): 0 of 6 on day 15

CCC[CH2][Hg][Cl]
survivor count (dose: 75.0 mg/kg/injection, schedule: Q04DX004 (sc), vehicle: Klucel (hydroxypropylcellulose) (HPC)): 0 of 6 on day 15

COc1ccc2nc3cc(Cl)ccc3c(NCCNCCNCCNc3c4ccc(Cl)cc4nc4ccc(OC)cc34)c2c1
T/C (dose: 200.0 mg/kg/injection, schedule: Q01DX010 (sc), vehicle: saline with Tween-80, evaluated on day 11): 132 % of control

CCC(=O)N(C)[C@@H](C)C(=O)O[C@H]1CC(=O)N(C)c2cc(cc(OC)c2Cl)C/C(C)=C/C=C[C@@H](OC)[C@@]2(O)C[C@H](OC(=O)N2)[C@@H](C)[C@@H]2O[C@@]12C
survivor count (dose: 0.5 mg/kg/injection, schedule: Q01DX010 (sc), vehicle: saline + alcohol): 0 of 6 on day 11

CNNCc1ccc(C(=O)NC(C)C)cc1
survivor count (dose: 200.0 mg/kg/injection, schedule: Q01DX010 (sc), vehicle: saline): 1 of 3 on day 11 | survivor count [2]: 0 of 3 on day 11

O=C(C#Cc1ccccc1)c1ccccc1
survivor count (dose: 300.0 mg/kg/injection, schedule: Q04DX004 (sc), vehicle: Klucel (hydroxypropylcellulose) (HPC)): 1 of 6 on day 15 | survivor count (dose: 600.0 mg/kg/injection, schedule: Q04DX004 (sc), vehicle: Klucel (hydroxypropylcellulose) (HPC)): 2 of 6 on day 15 | survivor count (dose: 1200.0 mg/kg/injection, schedule: Q04DX004 (sc), vehicle: Klucel (hydroxypropylcellulose) (HPC)): 0 of 6 on day 15 | survivor count (dose: 2400.0 mg/kg/injection, schedule: Q04DX004 (sc), vehicle: Klucel (hydroxypropylcellulose) (HPC)): 0 of 6 on day 15

CC(=O)Oc1c(C)[nH]ccc1=O
T/C (dose: 300.0 mg/kg/injection, schedule: Q04DX004 (sc), vehicle: suspension in saline, evaluated on day 15): 131 % of control | survivor count (dose: 2400.0 mg/kg/injection, schedule: Q04DX004 (sc), vehicle: suspension in saline): 1 of 6 on day 15

CCSC(=O)N1c2ccc(OC)cc2C=CC1C#N (stereo not given)
survivor count (dose: 4800.0 mg/kg/injection, schedule: Q04DX004 (sc), vehicle: saline with Tween-80): 2 of 6 on day 15

CCCNC1=C(C)C(=O)C2=C(C1=O)[C@H](COC(N)=O)[C@]1(OC)[C@@H]3N[C@@H]3CN21
survivor count (dose: 24.0 mg/kg/injection, schedule: Q04DX003 (sc), vehicle: saline): 1 of 6 on day 15 | survivor count (dose: 48.0 mg/kg/injection, schedule: Q04DX003 (sc), vehicle: saline): 0 of 6 on day 15

CSCS(=O)C[C@H](CO)NC(=O)/C=C/c1c(C)[nH]c(=O)[nH]c1=O (stereo not given in full)
survivor count (dose: 3.0 mg/kg/injection, schedule: Q04DX004 (sc), vehicle: saline): 3 of 6 on day 15 | survivor count (dose: 6.0 mg/kg/injection, schedule: Q04DX004 (sc), vehicle: saline): 0 of 6 on day 15

O=C1N(Cl)C(=O)C(c2ccc(Cl)cc2)(c2ccc(Cl)cc2)N1Cl
survivor count (dose: 400.0 mg/kg/injection, schedule: Q01DX010 (sc), vehicle: saline with Tween-80): 1 of 3 on day 11 | survivor count (dose: 800.0 mg/kg/injection, schedule: Q01DX010 (sc), vehicle: saline with Tween-80): 0 of 3 on day 11

CCCCCCCCCCS(=O)CC(CO)NC(=O)/C=C/c1c(C)[nH]c(=O)[nH]c1=O (stereo not given)
survivor count (dose: 75.0 mg/kg/injection, schedule: Q04DX004 (sc), vehicle: distilled water + Tween-80): 0 of 6 on day 15

BrC1CC(Br)c2c1c1c(c3c2C(Br)CC3Br)C(Br)CC1Br (stereo not given)
T/C (dose: 600.0 mg/kg/injection, schedule: Q04DX004 (sc), vehicle: water, evaluated on day 15): 136 % of control | T/C (dose: 2400.0 mg/kg/injection, schedule: Q04DX004 (sc), vehicle: water, evaluated on day 15): 128 % of control

O=c1cc(-c2ccccc2)[nH]c2c1CCCC2
T/C (dose: 300.0 mg/kg/injection, schedule: Q04DX004 (sc), vehicle: saline with Tween-80, evaluated on day 15): 127 % of control

O=C([CH-]C(=O)C(F)(F)F)c1ccccc1.O=C([CH-]C(=O)C(F)(F)F)c1ccccc1.O=C([CH-]C(=O)C(F)(F)F)c1ccccc1.O=C([CH-]C(=O)C(F)(F)F)c1ccccc1.[Eu+3].c1ccncc1
survivor count (dose: 1600.0 mg/kg/injection, schedule: Q01DX010 (sc), vehicle: Klucel (hydroxypropylcellulose) (HPC)): 1 of 3 on day 11
